# Laboratory results taken from patent US20110059398A1, “PHOTOPOLYMERIZABLE COMPOSITION” (AGFA GRAPHICS NV, priority 2004, published 2011).
# Assay: Exposure test of the printing plate precursor: sum of the density of the UGRA step wedges (13-step wedge, violet laser 392-417 nm, 86 μJ/cm^2)
compound,measurement,setting,value
CC(C)(c1ccc2oc(=S)[nH]c2c1)c1ccc2oc(=S)[nH]c2c1 [I-1],UGRA Sum mean value,"Example 2, Experiment Q, co-initiator 0.0068 g (0.0199 mmol) per 26.21 g composition, mean of two plates",4.30
same,UGRA Sum mean value,"Example 2, Experiment R, co-initiator 0.0139 g (0.0406 mmol) per 26.21 g composition, mean of two plates",4.76
Sc1nnc(SCCCCSc2nnc(S)s2)s1 [II-1],UGRA Sum mean value,"Example 2, Experiment S, co-initiator 0.0144 g (0.0406 mmol) per 26.21 g composition, mean of two plates",5.21
"Sc1nc2ccccc2s1 [TH-1, mercaptobenzthiazole]",UGRA Sum mean value,"Example 1, Experiment A, co-initiator 0.0010 g (0.00598 mmol) per 26.21 g composition, mean of two plates, one fully hardened step=1.00",0.06
same,UGRA Sum mean value,"Example 1, Experiment B, co-initiator 0.0020 g (0.0120 mmol) per 26.21 g composition, mean of two plates",1.93
same,UGRA Sum mean value,"Example 1, Experiment C, co-initiator 0.0040 g (0.0239 mmol) per 26.21 g composition, mean of two plates",3.05
same,UGRA Sum mean value,"Example 1, Experiment D, co-initiator 0.0068 g (0.0407 mmol) per 26.21 g composition, mean of two plates",3.92
same,UGRA Sum mean value,"Example 1, Experiment E, co-initiator 0.0100 g (0.0598 mmol) per 26.21 g composition, mean of two plates",4.00
same,UGRA Sum mean value,"Example 1, Experiment F, co-initiator 0.0150 g (0.0897 mmol) per 26.21 g composition, mean of two plates",4.12
same,UGRA Sum mean value,"Example 1, Experiment G, co-initiator 0.0300 g (0.179 mmol) per 26.21 g composition, mean of two plates",4.06
same,UGRA Sum mean value,"Example 1, Experiment H, co-initiator 0.0500 g (0.299 mmol) per 26.21 g composition, mean of two plates",3.86
same,UGRA Sum mean value,"Example 1, Experiment I, co-initiator 0.1000 g (0.598 mmol) per 26.21 g composition, mean of two plates",3.31
same,UGRA Sum mean value,"Example 2, Experiment L, co-initiator 0.0068 g (0.0407 mmol) per 26.21 g composition, mean of 6 plates",3.86
"S=c1[nH]c2ccccc2o1 [TH-2, mercaptobenzoxazole]",UGRA Sum mean value,"Example 2, Experiment O, co-initiator 0.0061 g (0.0403 mmol) per 26.21 g composition, mean of two plates",3.33
same,UGRA Sum mean value,"Example 2, Experiment P, co-initiator 0.0068 g (0.0450 mmol) per 26.21 g composition, mean of two plates",3.89
"CC(C)(C)COC(=O)CCS [TH-3, Neopentylalcohol mono(3-mercaptopropionate)]",UGRA Sum mean value,"Example 2, Experiment N, co-initiator 0.0796 g (0.452 mmol) per 26.21 g composition, mean of two plates",no image
